According to patent US7301005B2, “Immunomodulatory peptides derived from heat shock proteins and uses thereof” (priority 2000, dated 2007):
Some results were stated once for a whole list of compounds, not compound by compound.

System: SFMC from patients with oJIA
Test: Proliferative response of SFMC incubated with dnaJ and restimulated with autologous feeder cells plus peptide
Assay type: cell-based, human
Settings: restimulated 96 hr (FIG. 3)
Method: Results, expressed as stimulation index (SI), are shown as mean+SD.
In order to identify possible relevant epitopes on the bacterial dnaJ protein, PBMC and SFMC of patients with oJIA were incubated for 72 hr with dnaJ, and restimulated with autologous feeder cells the in presence or absence of selected E. coli derived MHC class II binder peptides for 96 hr.
In order to evaluate whether human homologous peptides could be the target of cross-recognition leading to self reactivity, human peptides derived from regions of HSJ1, HDJ1, or HDJ2 having sequence homology with E. coli dnaJ were studied. SFMC of 14 patients with oJIA presenting a SI to the recombinant E. coli hsp dnaJ greater than 3 were restimulated for 96 hr with autologous cells in presence or absence of human peptide 2, 3, or 5, which are homologs of bacterial peptide 4; human peptide 20, 21, or 23, which are homologs of bacterial peptide 22; or human peptide 164, 167, or 176, which are homologs of bacterial peptide 174. SFMC proliferative responses, pro-inflammatory cytokine production, and anti-inflammatory IL-4 levels were overall similar between the peptides derived from human dnaJ proteins and the homologous bacterial peptides.
Results are expressed as SI or pg/ml (mean+SD). […]
To explore the possible correlation of clinical features with the development of peptide-induced immune modulation, oJIA patients were grouped according to the course of disease, including those with persistent disease (n=16), and those with extended disease (n=15) o-JIA. (FIG. 25).

Sequence	mean SI
PINFAMAALGGEIEV (listed as Escherichia coli) [Peptide 268, bacterial (E. coli) dnaJ peptide]	≥ 6
QGFFAVQQTCPHCQG (listed as Escherichia coli) [Peptide 174, bacterial (E. coli) dnaJ peptide]	≥ 6
QKRAAYDQYGHAAFEQ (listed as Escherichia coli) [Peptide 61, bacterial (E. coli) dnaJ peptide]	≥ 6
RKAYKRLAMKYHPDR (listed as Escherichia coli) [Peptide 22, bacterial (E. coli) dnaJ peptide]	≥ 6
